Experimental data: PubChem BioAssay AID686943 (Drosophila RNAi Screening Center, 2013)
The screen tested about 23,000 reagents; below is a random part of those with a known target gene and a result. 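Extra replicates exist only for a retested subset of genes; insulin dose and duration not given; both raised and lowered dpERK matter.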 A plus sign joins genes that one reagent is predicted to hit. Not all columns of the deposit are shown. The record does not give: the amount of reagent, the time to read-out.

- Test: 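Knockdowns that increase or decrease active ERK after insulin receptor stimulation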 (primary screen)
- Cell system: Drosophila S2R+ haemocyte-like cells expressing YFP-tagged ERK (Rolled)
- Reagents: long dsRNA against Drosophila genes
- Challenge: insulin stimulation versus unstimulated cells; dose and duration not given
- Read-out: 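Per-plate z-scores of phospho-ERK immunostaining normalised to YFP-tagged ERK, measured with and without insulin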
- Direction: replicate 1, z-score of dpERK with insulin and replicate 2, z-score of dpERK with insulin: higher = more active ERK per ERK-YFP after insulin

After knock-down of CG8281 [DRSC10976] the results were replicate 1, z-score of dpERK with insulin 0.64; replicate 2, z-score of dpERK with insulin 0.22.
With knock-down of CG15705 [DRSC06576], the record shows replicate 1, z-score of dpERK with insulin 1.06; replicate 2, z-score of dpERK with insulin 0.25.
Against mTerf3 (mitochondrial transcription termination factor 3) [DRSC11759], the entry reads replicate 1, z-score of dpERK with insulin 0.75; replicate 2, z-score of dpERK with insulin 0.2.
CG6144 [DRSC02934] scored replicate 1, z-score of dpERK with insulin 0.24; replicate 2, z-score of dpERK with insulin 0.55.
With knock-down of CG3021 [DRSC18165] the results were replicate 1, z-score of dpERK with insulin -0.06; replicate 2, z-score of dpERK with insulin 0.58.
Silencing of CG3021 [DRSC18652] resulted in: replicate 1, z-score of dpERK with insulin 1.54; replicate 2, z-score of dpERK with insulin 0.73.
With knock-down of Lcp65Af [DRSC11213] the results were replicate 1, z-score of dpERK with insulin 0.81; replicate 2, z-score of dpERK with insulin 0.86.
Ugt37A2 (UDP-glycosyltransferase family 37 member A2) [DRSC15861] gave replicate 1, z-score of dpERK with insulin 0.44; replicate 2, z-score of dpERK with insulin 1.64.
With knock-down of CG13060 [DRSC09943], the record shows replicate 1, z-score of dpERK with insulin -0.43; replicate 2, z-score of dpERK with insulin 0.4.
For AhcyL2 (Adenosylhomocysteinase like 2) [DRSC14107], the values are replicate 1, z-score of dpERK with insulin 0.35; replicate 2, z-score of dpERK with insulin 0.43.
With knock-down of CG31793 [DRSC02605] the results were replicate 1, z-score of dpERK with insulin 0.73; replicate 2, z-score of dpERK with insulin 0.64.
Atg2 (Autophagy-related 2) [DRSC08273] scored replicate 1, z-score of dpERK with insulin -0.44; replicate 2, z-score of dpERK with insulin -0.21.
With knock-down of Cpr31A (Cuticular protein 31A) [DRSC02779], the screen gave replicate 1, z-score of dpERK with insulin 0.24; replicate 2, z-score of dpERK with insulin 0.23.
Depletion of CG12035 [DRSC08238] came out at: replicate 1, z-score of dpERK with insulin -0.2; replicate 2, z-score of dpERK with insulin -0.59.
Dph2 (Diphthamide biosynthesis 2) [DRSC16222] gave replicate 1, z-score of dpERK with insulin 0.04; replicate 2, z-score of dpERK with insulin 0.16.
Cnx14D (Calnexin 14D) [DRSC20214] showed replicate 1, z-score of dpERK with insulin -0.08; replicate 2, z-score of dpERK with insulin 0.14.
Knock-down of CG3558 [DRSC00615] gave: replicate 1, z-score of dpERK with insulin 0.6; replicate 2, z-score of dpERK with insulin 0.27.
CheA84a (Chemosensory protein A 84a) [DRSC12669] gave replicate 1, z-score of dpERK with insulin 0.14; replicate 2, z-score of dpERK with insulin 0.15.
After knock-down of cmet (CENP-meta) [DRSC03511], the screen gave replicate 1, z-score of dpERK with insulin 0.34; replicate 2, z-score of dpERK with insulin 1.39.
Silencing of IM33 (Immune induced molecule 33) [DRSC00476] came out at: replicate 1, z-score of dpERK with insulin -0.28; replicate 2, z-score of dpERK with insulin 0.64.
Coprox (Coproporphyrinogen oxidase) [DRSC01996] scored replicate 1, z-score of dpERK with insulin 0.61; replicate 2, z-score of dpERK with insulin 0.
For CG10209 [DRSC05980] the deposit lists replicate 1, z-score of dpERK with insulin -0.03; replicate 2, z-score of dpERK with insulin 0.33.
After knock-down of Bub3 [DRSC14168], the screen gave replicate 1, z-score of dpERK with insulin -0.28; replicate 2, z-score of dpERK with insulin -0.42.
After knock-down of CG11145 [DRSC06049], the screen gave replicate 1, z-score of dpERK with insulin -0.45; replicate 2, z-score of dpERK with insulin -0.17.
Against hfw (halfway) [DRSC18506] the deposit lists replicate 1, z-score of dpERK with insulin -0.59; replicate 2, z-score of dpERK with insulin 1.73.
After knock-down of GstE10 (Glutathione S transferase E10) [DRSC06671], the record shows replicate 1, z-score of dpERK with insulin 0.29; replicate 2, z-score of dpERK with insulin 0.08.
Silencing of CG33331 + CG33332 [DRSC22928] came out at: replicate 1, z-score of dpERK with insulin 0.07; replicate 2, z-score of dpERK with insulin 0.66.
With knock-down of CanA-14F (Calcineurin A at 14F) [DRSC20211], the record shows replicate 1, z-score of dpERK with insulin -1.58; replicate 2, z-score of dpERK with insulin -0.47.
With knock-down of ash1 (absent, small, or homeotic discs 1) [DRSC11325], the record shows replicate 1, z-score of dpERK with insulin 0.83; replicate 2, z-score of dpERK with insulin 1.04.
With knock-down of CG12983 [DRSC11692] the results were replicate 1, z-score of dpERK with insulin 0.3; replicate 2, z-score of dpERK with insulin 0.05.
Samtor (S-adenosylmethionine sensor upstream of TORC1) [DRSC04390] gave replicate 1, z-score of dpERK with insulin -0.86; replicate 2, z-score of dpERK with insulin 0.03.

5 entries from above, reduced to “replicate 1, z-score of dpERK with insulin”.
AhcyL2 (Adenosylhomocysteinase like 2) [DRSC14107] = 0.35
CG31793 [DRSC02605] = 0.73
Atg2 (Autophagy-related 2) [DRSC08273] = -0.44
Cpr31A (Cuticular protein 31A) [DRSC02779] = 0.24
CG12035 [DRSC08238] = -0.2
